# Test results taken from the supplement of paper PMC3334620.
# The full ranking holds about 33,000 sequences; the median of “E-score (-0.5 to 0.5)” is about -0.016, and the highest 2% start at about 0.3. The list shows a part of the results.
# Molecular target: T1, Yer184c (UniProt P39961)
# T1 sequence: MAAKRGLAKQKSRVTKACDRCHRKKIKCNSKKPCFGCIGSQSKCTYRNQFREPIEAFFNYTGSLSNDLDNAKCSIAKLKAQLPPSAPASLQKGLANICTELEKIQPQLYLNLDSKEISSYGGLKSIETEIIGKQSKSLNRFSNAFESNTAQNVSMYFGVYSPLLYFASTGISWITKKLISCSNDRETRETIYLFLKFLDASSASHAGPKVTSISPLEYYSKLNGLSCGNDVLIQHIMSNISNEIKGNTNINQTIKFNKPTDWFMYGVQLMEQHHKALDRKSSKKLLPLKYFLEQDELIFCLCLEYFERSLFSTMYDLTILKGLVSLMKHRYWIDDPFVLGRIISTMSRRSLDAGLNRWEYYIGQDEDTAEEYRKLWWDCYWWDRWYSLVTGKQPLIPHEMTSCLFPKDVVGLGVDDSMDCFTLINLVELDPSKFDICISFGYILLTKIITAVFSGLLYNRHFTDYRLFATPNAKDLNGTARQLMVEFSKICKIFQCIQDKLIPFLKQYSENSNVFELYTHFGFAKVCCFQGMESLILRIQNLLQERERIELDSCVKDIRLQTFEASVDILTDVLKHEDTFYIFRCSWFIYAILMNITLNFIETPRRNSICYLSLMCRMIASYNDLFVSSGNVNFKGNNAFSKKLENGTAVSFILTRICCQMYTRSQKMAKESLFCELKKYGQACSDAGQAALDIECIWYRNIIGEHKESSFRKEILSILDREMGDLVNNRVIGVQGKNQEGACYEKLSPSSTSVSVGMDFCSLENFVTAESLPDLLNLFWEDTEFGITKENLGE
# Assay: PBM E-score (8-mer binding enrichment) (E-score (-0.5 to 0.5)); higher = stronger / more preferred TF binding
# Conditions: protein concentration: 100 nM; construct: GST-full length
# In short: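 Universal all-10-mer Agilent arrays, double-stranded by primer extension on fresh or once-stripped slides, were probed with about 100-200 nM GST-tagged yeast transcription factors made by PURExpress. Fluorescent anti-GST detected bound protein, and masliner normalised the scans. E-scores from the Universal PBM Analysis Suite were given to each ungapped eight-base word pooled with its reverse complement.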
row,Sequence,PBM E-score
1,ATAAGAGA,0.258
2,GTGAAATA,0.00219
3,GGACACCC,-0.23
4,GCAAGCGC,-0.0605
5,AAATGAGT,0.137
6,ACGAAAGT,0.041
7,AACCAATC,0.23
8,AAGCGAGC,0.062
9,TGGACCCA,-0.178
10,TCACGGGA,0.0331
11,AGATACAT,0.0245
12,TGACAAAA,0.126
13,TGCGCCCA,-0.225
14,ACCCCTCA,-0.264
15,GGAAAGTA,0.0581
16,CCCGTCAG,-0.276
17,AACTGTGA,0.123
18,GAACCTGA,-0.0868
19,CAGCTTAA,0.0492
20,GGACAACA,0.108
21,ACCTTCGA,-0.0968
22,ACACGACT,-0.0116

# As entered above.
# GGACACCC | PBM E-score: -0.23
# ACGAAAGT | PBM E-score: 0.041
# AAATGAGT | PBM E-score: 0.137
# AACCAATC | PBM E-score: 0.23

# Further results.

row,Sequence,PBM E-score
1,CATCGCAA,-0.152
2,CTATATTA,0.267
3,ATGACCCA,-0.243
4,CCCATAGC,-0.283
5,CCAAATTC,0.0211
6,ATTGTAGG,0.131
7,CCCTGGAG,-0.353
8,AGGGGACA,-0.194
9,CCCCCGTA,-0.366
10,GTCGGGAA,0.0333
11,TACTTCAA,0.141
12,CTACTGAA,0.0164
13,CGGGCAAG,-0.0502
14,CCTACCTC,-0.208
15,CAAGGTAC,-0.0326
16,CATGTCTC,-0.0791
17,ATAATTGC,0.11
18,CAACGTAA,-0.0874
19,CGATAAGA,0.132
20,CGTCTGAG,0.0123
21,GGTGGCAA,-0.21
22,AGAGTTGG,-0.207

row,Sequence,PBM E-score
1,ATACGTAC,-0.0829
2,ATTACAGA,0.213
3,AAGAAGTG,-0.0173
4,CGTTCATC,0.106
5,GACTTCTA,-0.124
6,AGGCAGAC,-0.139
7,ACTCGACT,-0.146
8,GAGCCCAC,-0.301
9,CCTGAACA,0.0242
10,ACGGTGGA,-0.21
11,CCTAAGTC,-0.147
12,AGTGAAAT,0.00869
13,CTGGCCTC,-0.139
14,CCTCTAAG,-0.112
15,GGGCGTAA,-0.197
16,ACTTCACC,0.18
17,AGCTTATA,-0.0237
18,CCCTGAGC,-0.00518
19,CATTGGAA,0.102
20,ACCATCAG,-0.101
21,CGGGGGAC,-0.259
22,CAAAGTAG,-0.0439

row,Sequence,PBM E-score
1,AATCTCCA,-0.116
2,ACTATAGG,-0.0523
3,GAGATAGA,0.152
4,TCCATGGA,0.188
5,GGCCTCTA,-0.303
6,TAGTGTAA,0.14
7,AAATGCAC,-0.0233
8,TATGCCCA,-0.0906
9,ATCAAGTG,-0.132
10,CCATATTA,0.117
11,AGGAGTTC,-0.14
12,AACTTCAG,0.0506
13,GGTTGAAA,0.102
14,AAGTGTAC,-0.143
15,GTGATTGA,0.128
16,CGCAAACC,0.06
17,AAACCCGA,0.215
18,ACCTGCTG,0.0141
19,AAGGAAGA,0.0122
20,CCCATGTA,-0.0592
